Some of the results follow. Further columns of the screen follow, without active or inactive calls. Most of these compounds were active or inconclusive in the main read-out, so they are no random draw. Potencies come from curve fits of mixed quality, noted in brackets.
Assay: qHTS Assay for Lipid Storage Modulators in Drosophila S3 Cells;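 for cell number change: cells counted by Cell Tracker Red CMTPX staining in the red channel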
Settings: BODIPY lipid droplet fluorescence, 18-24 h; for cell number change: measured here: cell count max response, cells fed with added oleic acid
Outline: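 Drosophila S3 cells got compounds at several concentrations plus oleic acid (400 uM solution). Laser-scanning cytometry with 488 nm excitation read lipid droplets at 500-530 nm and cells at 575-640 nm. Percent activity was relative to 20 uM Triacsin C.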

[1] = measured here: cell number channel AC50, cells fed with added oleic acid
[2] = measured here: lipid fluorescence (Fed channel) AC50, cells fed with added oleic acid

Structure (SMILES)	cell number change [%]	AC50 [1]	AC50 [2]
Cc1ccc(C)n1CCN1CCN(CC(=O)Nc2cc(C(F)(F)F)ccc2Cl)CC1	-2.37	0.291 µM [falling, single point]	
CCOc1ccc(CCNC(=O)C(CCC(N)=O)NC(=O)OCc2ccccc2)cc1OCC (configuration not stated)	-8.08		6.31 µM [falling, single point]
CC(=O)C1=C(O)C(=O)N(c2ccc(Br)cc2)C1c1ccc(Br)cc1 (configuration not stated)		0.0291 µM [falling, full curve, poor fit]	
CCC(=O)Nc1ccccc1C(=O)N1CCN(Cc2ccccc2)CC1	1.63		0.461 µM [falling, partial curve, poor fit]
CN(CC(=O)Nc1cccc(S(=O)(=O)N(C)C)c1)Cc1ccccc1	-0.952		
Cc1cccc(N2CCN(C(=O)c3ccccc3NC(=O)C3CCCCC3C(=O)O)CC2)c1 (configuration not stated)	4.49		
CCCCN=C1C([N+](=O)[O-])=CC=C2C1=NC1(CCCCC1)N2O	-26.5	0.326 µM [falling, full curve, poor fit]	4.61 µM [falling, partial curve]
Cc1ccc(NC(=O)C(C)Sc2nnc(-c3cccnc3)n2-c2ccccc2)cc1 (configuration not stated)	45.2	0.0411 µM [rising, full curve]	4.11 µM [rising, partial curve, poor fit]
CC(=O)c1ccc(-n2c(-c3cc(-c4ccco4)[nH]n3)n[nH]c2=S)cc1	-7.05		0.291 µM [rising, full curve, poor fit]
CC(=O)c1ccc(NC(=O)c2ccc3c(Cl)c4c(nc3c2)CCCC4)cc1	168	14.6 µM [rising, partial curve]	23.1 µM [rising, partial curve]
COC(=O)c1sc2nc(SCc3cccc(Cl)c3)n(N)c(=O)c2c1C	32.3	0.184 µM [rising, partial curve, poor fit]	25.9 µM [rising, partial curve, poor fit]
CCn1cc(C(=O)NCCCN2CC(C)CC(C)C2)c(=O)c2cc(S(=O)(=O)N(C)C)ccc21 (configuration not stated)	9.05		
O=C1CC2c3ccccc3C1C1C(=O)N(Cc3ccccc3)C(=O)C21 (configuration not stated)	-3.3	0.146 µM [falling, full curve, poor fit]	0.00517 µM [falling, full curve, poor fit]
O=C(NC1CCN(C(=O)NC2CCCCC2)CC1)c1cccc(F)c1	-16.2		6.51 µM [falling, single point]
NC(=O)c1c(NC(=O)Cn2nc(C(=O)O)c3ccccc3c2=O)sc2c1CCCC2	-29.4		29.1 µM [falling, single point]
COc1cccc(Oc2cc(NN3CCCCC3)c([N+](=O)[O-])cc2[N+](=O)[O-])c1OC	5.83		0.731 µM [rising, full curve]
CCN(CC)C(=O)CSc1nnc(-c2ccc(S(=O)(=O)N3CCCC3)cc2)o1	-64.3	25.9 µM [falling, partial curve]	25.9 µM [falling, partial curve]
CC(=O)c1ccc(Nc2c3c(nc4ccccc24)CCCC3)cc1	7.49		4.11 µM [rising, full curve]
COc1ccc(C(=O)COC(=O)CNC(=O)C2CCCCC2)c(OC)c1		0.58 µM [falling, single point]	
NC(=O)c1cc([N+](=O)[O-])ccc1NCCc1ccccc1	-2.02		4.11 µM [rising, single point]

Structure (SMILES)	cell number change [%]	AC50 [1]	AC50 [2]
COc1ccc(CC(=O)N(Cc2cc3cc(OC)ccc3[nH]c2=O)C(C)C)cc1	4.57		
COc1ccc(/C=N/N(Cc2ccccc2)c2ccccc2)cc1O	-20.3		
Cc1nn(-c2cccc(C(F)(F)F)c2)c(Cl)c1/C=N/Nc1cccc(C(=O)O)c1	23.2		2.59 µM [rising, full curve, poor fit]
COc1ccc(C2=NN(C(=O)CN3CCCC3)C(c3ccc(OC)cc3)C2)cc1 (configuration not stated)	-12.9		0.103 µM [falling, full curve, poor fit]
Cc1ccccc1CSCc1nc(N)nc(Nc2ccccc2C)n1		0.58 µM [rising, single point]	
CC1NC(=O)NC1CCCCC(=O)O (configuration not stated)	-15.4		1.64 µM [falling, full curve]
c1ccc2c(c1)CCCC2C1=NCCN1 (configuration not stated)	2.35		3.66 µM [falling, full curve, poor fit]
Cc1onc(-c2ccccc2)c1C(=O)Nc1nc2c(s1)CCCC2	2.5		
CCCCNC(=O)CCSc1ccc(C)cc1	14		16.4 µM [rising, partial curve, poor fit]
CC(NC(=O)c1ccnn1C)C1CCCO1 (configuration not stated)	13.1	3.66 µM [falling, single point]	
CC(C)C(C(=O)NCc1ccccc1)N(CC1CCCO1)C(=O)CNS(=O)(=O)c1ccccc1 (configuration not stated)	-12.2		29.1 µM [rising, single point]
Cc1ccc(S(=O)(=O)Nc2nc(C)cc(NCCN)n2)cc1	-0.143		29.1 µM [falling, single point]
COC(=O)C1=C(CSc2nncn2C)NC(=O)NC1c1ccc(F)cc1 (configuration not stated)	-23.6		1.3 µM [falling, full curve, poor fit]
CC1CC(C)CN(C(=O)COC(=O)C2CCN(S(=O)(=O)c3ccc4c(c3)OCCO4)CC2)C1 (configuration not stated)	21.4		0.103 µM [falling, full curve, poor fit]
COCCSc1nnc(NC(=O)C2CC(=O)N(c3ccccc3)C2)s1 (configuration not stated)	-27	3.26 µM [falling, full curve, poor fit]	3.26 µM [falling, single point]
Cc1c(CN2CCN(c3cccc(C(F)(F)F)c3)CC2)c(=O)n(-c2ccccc2)n1C	-9.55		
Cc1ccc(S(=O)(=O)N2CCOCC2)cc1C(=O)OCC(=O)Nc1ccc2c(c1)OCO2	0.829		
Cc1ccc(-n2[nH]c(C)c(/C=N/NC(=O)c3ccc([N+](=O)[O-])cc3)c2=O)c(C)c1			6.51 µM [rising, single point]
CC(C)CC(=O)N/C(N)=N/c1nc2ccccc2s1	-16.1		3.66 µM [rising, single point]
COc1ccc2oc(C(=O)N(C)Cc3ccc(OC(F)F)cc3)c(C)c2c1	14.2		

Some of the entries above, reformatted:
Structure (SMILES) | cell number change [%] | AC50 [1] | AC50 [2]
Cc1ccccc1CSCc1nc(N)nc(Nc2ccccc2C)n1 |  | 0.58 µM [rising, single point] | 
Cc1c(CN2CCN(c3cccc(C(F)(F)F)c3)CC2)c(=O)n(-c2ccccc2)n1C | -9.55 |  | 
Cc1ccc(S(=O)(=O)N2CCOCC2)cc1C(=O)OCC(=O)Nc1ccc2c(c1)OCO2 | 0.829 |  | 

Remaining list, next part

Structure (SMILES)	cell number change [%]	AC50 [1]	AC50 [2]
CNS(=O)(=O)c1cccc(C(=O)OCC(=O)N2CCc3ccccc3C2)c1	0.144		0.082 µM [falling, full curve]
COc1cccc(-c2cc(C(=O)Nc3cnn(Cc4ccccc4C)c3)no2)c1	-29.7	0.0058 µM [falling, full curve, poor fit]	
O=C(COC(=O)CCNS(=O)(=O)c1ccccc1)NNC(=O)c1ccccc1	-14.5		
CCOC(=O)C(C)Oc1cccc2c(=O)n(CC(=O)Nc3ccc(OCC)cc3)ccc12 (configuration not stated)	60.7	13 µM [rising, partial curve]	7.31 µM [rising, partial curve]
CC(O)CNC(=O)c1ccc(-c2nn(C)c(=O)c3ccccc23)cc1 (configuration not stated)	9.29		29.1 µM [rising, single point]
CC(Sc1nnc(C2CC2)n1C1CC1)C(=O)Nc1ccccc1C#N (configuration not stated)	13.1		0.517 µM [rising, full curve]
O=C(CSc1nccn1-c1ncc(C(F)(F)F)cc1Cl)c1ccc(Cl)cc1	-20.9		
CC(C)n1cnc2c(Nc3cccc(F)c3)nc(NCCO)nc21			0.00461 µM [rising, full curve, poor fit]
CC(=O)NC(=S)Nc1ccc(NC(=O)c2cccs2)cc1	-11.2		32.6 µM [falling, single point]
CCOC(=O)Nc1ccc2nc(Sc3ccc(Cl)cc3)sc2c1			2.31 µM [rising, partial curve]
COc1cc(NC(=S)Nc2ncccc2C)cc(OC)c1OC	-19.9	1.16 µM [falling, full curve]	1.03 µM [falling, full curve]
c1cc2c(nn1)CCc1nonc1-2	-56.5	29.1 µM [falling, single point]	20.6 µM [falling, partial curve]
CCOC(=O)C(O)(C1C(=O)CC(C)(C)CC1=O)C(F)(F)F (configuration not stated)	-20		1.64 µM [falling, full curve]
COc1cccc(/C=C/C(=O)OCC(=O)NCCNC(=O)COC(=O)/C=C/c2cccc(OC)c2)c1	-35.3	29.1 µM [falling, single point]	
Cc1ccc(C(NC(=O)N2CCOCC2)=C(Cl)Cl)cc1F	-37.4	20.6 µM [falling, single point]	
Cn1c(C(=O)N[C@@H](Cc2ccccc2)C(=O)NCCC(=O)O)cc2cc(Cl)ccc21		6.51 µM [rising, single point]	29.1 µM [rising, single point]
CC(=O)c1ccc(N2CCN(C(=O)c3c(-c4ccccc4Cl)noc3C)CC2)cc1	16.5		6.51 µM [rising, full curve, poor fit]
CN(C)S(=O)(=O)c1ccc(Cl)c(NC(=O)CN2CCCC2)c1	66.7	29.1 µM [rising, single point]	29.1 µM [rising, single point]
CCOC(=O)N1CCN(C(=O)COC(=O)COc2c(C)cc(C)cc2C)CC1	-2.94		23.1 µM [rising, single point]
